Experimental data from US20080287445A1, “Prokineticin 2 receptor antagonists” (priority 2005, published 2008).

Chains of the proteins cited; added tags and fusions are not shown.
UniProt Q8TCW9, whole entry: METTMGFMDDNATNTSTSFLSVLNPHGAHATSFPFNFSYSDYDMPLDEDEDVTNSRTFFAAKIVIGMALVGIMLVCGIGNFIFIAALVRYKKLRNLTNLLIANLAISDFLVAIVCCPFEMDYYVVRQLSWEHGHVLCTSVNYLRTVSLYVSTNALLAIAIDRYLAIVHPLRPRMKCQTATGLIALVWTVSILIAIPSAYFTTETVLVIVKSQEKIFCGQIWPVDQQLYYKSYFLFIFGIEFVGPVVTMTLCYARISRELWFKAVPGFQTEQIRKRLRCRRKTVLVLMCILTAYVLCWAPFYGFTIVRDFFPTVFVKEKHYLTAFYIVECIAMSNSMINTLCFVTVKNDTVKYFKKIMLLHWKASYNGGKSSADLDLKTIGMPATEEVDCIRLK

Biological target: GPR73 (prokineticin 1 receptor) (Homo sapiens, UniProt Q8TCW9)
Assay: PK1 functional assay: Ca2+ mobilization screening for PK1 antagonists on the FLIPR
Conditions: HEK 293 GPR73 cells, multiple values = multiple testing
Description: At a time of 24 h prior to running the assay, in cell culture media (DMEM containing high Glucose and L-glutamine, 10% FBS, 1% Pen/Streptomycin, 1% Sodium Pyruvate, 20 mM HEPES, Zeocin 200 mg/L), 100 μL of 1.3*10^6/ml HEK 293 GPR73 (prokineticin 1 receptor) expressing cells were plated in a 96 well poly-d-lysine coated plate (Costar), and incubated at 37 C and 5% CO2. On the day in which the assay was run, the media was removed and 200 μL of 5× Calcium Plus Dye (Molecular Devices) which was previously resuspended with 200 mL of assay buffer [HBSS w/Ca^2+ and Mg^2+ w/o phenol red, 20 mM HEPES, 0.1% BSA, 10 mL probenecid (710 mg probenecid in 5 mL of 1N NaOH, to which was then added 5 mL HBSS containing 20 mM HEPES)] was added to each well of the 96-well plate. The plate was incubated at 37 C and 5% CO2 for 30 min in dark. The plate was removed and allowed to reach RT for 15 min in the dark. The assay was then run on the FLIPR. In Brief: base line read for 1 min, compound added (25 μL) and incubated for 4 min, 15 seconds, PK1 ligand preparation added (25 μL) for a final concentration of a previously determined EC50 and fluorescence was counted for 1 min, 45 seconds. Baseline is described as the amount of relative fluorescence read when buffer alone is added to cells. Baseline was subtracted from all wells. Percent of control was calculated as follows: […]

Ca^2+ Mobilization % Inh @ 10 μM (10 μM compound): 42%
pIC50 (read-out: Ca^2+ Mobilization IC50, PK1 ligand preparation at its EC50): < 5.00
SMILES: COc1ccc(Cn2c(=O)nc(NCc3cnc(C)cc3C)n(Cc3ccncc3)c2=O)cc1 [Cpd 101]

pIC50: −log10 of the molar value. The match of structure and compound is tentative.
